Assay results as given in PubChem BioAssay AID1508600 (Functional Genomics Laboratory (NCATS/FGL), 2020).
Hit rate of the full screen: of about 53,000 sequences, about 3,700 (7%) were called active.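 The calls were made as follows: active = gene knockdowns whose robust z-score for IL-1 alpha signal is at least 2 or at most -2, so actives lie on both sides; inactive = the rest.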 This is one part of the list.

Experiment: Components of the Cytosolic LPS Sensing Pathway: Gene Identification via Genome-wide siRNA Screen;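 also: robust z of the log signal after scaling to non-targeting control siRNA wells of the plate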
Details: RAW264.7 macrophages, IL-1a HTRF, actives lie on both sides, screened at 100 nM (by protocol), cells primed 5 h with Pam3CSK4 first
Procedure, shortened: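 RAW264.7 mouse macrophages reverse-transfected with single siRNAs (100 nM final) for 48h, primed with Pam3CSK4 for 5 hours, then transfected with LipidA for 24 hour. Supernatant IL-1a read by HTRF; values normalized to negative-control median, log-transformed robust z-scores.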

Sequence | z-score
GCUACAAGUACUGGUUUCUTT against Pcnx3 | inactive: 1.4
GGAUGCUAUAAAAUCACCATT against Rps27 | inactive: 0.667
GGGUAUGUCGGAGACCUUUTT against Cnpy3 | inactive: -0.637
GGAUGAAGGGACGAAUUCATT against Pcdha6 | inactive: 0.635
GGCCCAACAAUACCUGCUGTT against Rgs17 | inactive: -1.5
GGUUUCGUAGCUUAACCACTT against Rab27a | inactive: -0.996
GGAUACACAGACAUUAAUCTT against Cd164 | inactive: 1.14
GGGCUUCAUUCUCGUCUACTT against Rap2b | inactive: 1.41
GGACUACGGAUACAGGAUATT against Sfrp5 | inactive: 0.178
GGAGAAUACAGUGGAAUUGTT against Idh3a | inactive: 0.951
GGACUCAGCACUCUUUUGCTT against E130311K13Rik | inactive: -1.04
CCGCAUGAACUUCCUACAGTT against Ugt1a1 | inactive: 1.2
GGAGAUGGCCAAAAAAGAGTT against Pop1 | inactive: -0.519
CGAGUGACAGCUAAGUAUGTT against Pskh1 | inactive: -1.4
GCGGCUAAUUCGUUCUUUCTT against Atp8a1 | inactive: 0.708
GCACUGGGAAGAAAAUUCUTT against Olfr130 | inactive: -1.42
GCGAGAUGCCAACAAACUGTT against Pacs1 | inactive: 0.678
GGGUUCAAGGUAUUCUUAGTT against Vmn1r225 | inactive: -1.88
GGCAUGAGUCACUUGAUGATT against Hebp1 | inactive: -0.999
GCCUUUACCGAGUGCACAUTT against Ttyh3 | inactive: 1.8
GCAGGAUUCAAAGAUCUAATT against Kbtbd8 | inactive: -0.587
GGCGUGUCCUACCUUGAAATT against Scg3 | inactive: 0.81

Sequence | z-score
CCUUGUUUGAAUAACGAACTT against 5830427D03Rik | inactive: -1.73
GUACAUCAUAGCCAAGUUCTT against Foxl2 | inactive: -0.468
GCAAAUACUCUCAACUAACTT against Celsr3 | inactive: 0.686
GGAUAAAUGCCAUUUUGGATT against Cpeb1 | inactive: -0.664
GGACUGUGGAUAACCUGCUTT against Hspb2 | active: -2.55
GGACAAGUAAAACAGAACATT against Muc4 | inactive: 1.5
GCCUUGUGACGACAUAAAGTT against Rabl3 | inactive: -1.75
GGACCAUCUGUCCACAGUUTT against Dglucy | inactive: -0.758
CCCUGUAGAAAUUCAAGCCTT against Lyrm4 | inactive: 0.38
CGUAUGUUGGAACAAAUGCTT against Map2k5 | inactive: 1.94
GCCUUUAAGUGGAAUCAGUTT against Serhl | inactive: -1.12
GGCUUUCGGUUAUGACCAATT against Alas2 | inactive: -0.385
GCAUGGAGUGUGCAUUCCATT against Tcf25 | inactive: -0.954
GGAAAGGAAUGUUCAAAUUTT against Psmb8 | active: 2.02
CCAUGGCCUAGAGCUGGAUTT against Unc5cl | inactive: 0.315
GCCUAUGCACCUUACCUUUTT against Sae1 | inactive: 0.936
CCAUAUUCCGGUUAAUUCATT against 1700102P08Rik | inactive: 0.909
GGAGUACAAAGAAAGGAACTT against Nop14 | inactive: 0.588
GUACACCAGUGGAAGCACATT against Sprr2b | inactive: -1.91
GGAAUCAACAAGGUUAUCATT against Glb1l2 | inactive: 0.205
CCCUGUUACAGUCAGAAGCTT against Slc39a13 | inactive: 0.286
CAUAUGAAAAUGAAUGCCATT against Spink4 | inactive: 0.166

Already shown: entries from further up.
Sequence | z-score
GCCUUGUGACGACAUAAAGTT against Rabl3 | inactive: -1.75
GGACCAUCUGUCCACAGUUTT against Dglucy | inactive: -0.758

Going on with the list:

Sequence | z-score
GGAGUCAUAUGCACAGAUCTT against Tcte3 | inactive: -0.706
CCCUAAACCAGAUGCGUACTT against Epn3 | inactive: -0.754
GCGCAUGACUACAUCAGCUTT against Ptgs1 | inactive: -0.736
GCAGCUCGAUGGAACUCCATT against Abl1 | inactive: 0.0525
GGGUUUGGCCAUGAAUUUGTT against Hgf | inactive: 0.356
GCACGAGAUUGACUUGCCUTT against Ldlrad4 | inactive: -1.44
GGUCAGAUUCUUUGAUGAATT against Ssr4 | inactive: 0.11
GGCUGAAGGGCUCUACAAATT against Susd4 | inactive: 1.66
GGACAAGAAGAAAAAGAAGTT against Tmie | inactive: -1.96
GGUCUUUUCUAUUAUGGGATT against Strc | inactive: 1.22
GGCUCUUAGAAAAAUGUUATT against Olfr1156 | inactive: -0.816
GGCUUUGAUUGAACAUGAGTT against Lypla2 | inactive: -1.85
GCGGUAGAGACUACAGCCUTT against BC028528 | inactive: 0.192
GGCAAAGACAUUGAUCCACTT against Slc5a12 | inactive: -0.745
GGGAUCCUUGUAUUUCUUUTT against Ctns | inactive: -0.576
GGUUCUCAUCAACCUUCUCTT against Olfr109 | inactive: 0.484
GCAAUGGAUUUCAAUUGACTT against Fam167a | inactive: -0.33
GGAAUGGUGAUAGCCACACTT against Olfr24 | inactive: 0.565
CGCUCUGUAGUUUCCUUUCTT against Camk1d | inactive: 1.17
GGGAUAAAGGCACUUUGUATT against Csgalnact1 | inactive: -0.476
GGCUGAUGUGGAAGGGAUGTT against Lefty1 | inactive: -0.159
GGAAACAGGGCUACGACAGTT against Nxpe4 | inactive: -0.0851

Quoted at random: 4 entries already listed
Sequence | z-score
GGGAUCCUUGUAUUUCUUUTT against Ctns | inactive: -0.576
GGACAAGAAGAAAAAGAAGTT against Tmie | inactive: -1.96
GGUCAGAUUCUUUGAUGAATT against Ssr4 | inactive: 0.11
GCGGUAGAGACUACAGCCUTT against BC028528 | inactive: 0.192

Next part:

Sequence | z-score
CCGAACUUUCAUUCAAUAUTT against Tmem260 | inactive: 0.112
GGUUGAUAGGAUAUGGUCCTT against Klhl31 | inactive: -0.437
GGAUAACCCUAAGUUUAUGTT against Clu | inactive: 0.753
GGAGAACCCUUAUGUGACATT against Pik3ca | inactive: -1.91
GUUUCUCGAAGAGCAUCCUTT against Cyb5a | inactive: 0.732
GGAAGAAAAGGUGUUUACATT against Gpr143 | inactive: 0.86
CGAUUGAUGACAAAUGGAATT against 9330175E14Rik | inactive: -1.65
GGAAAUAGAGGGAGAAUAATT against Ccdc169 | inactive: -0.892
GCUACUAAGCACCUAGAGATT against Fxr2 | inactive: -0.932
GGAGAAGGAAAUUCAGAAATT against Gnpda1 | inactive: 0.957
GUAGGAAGGAGUGAGCAUUTT against Gm10037 | inactive: 1.03
GGAUGAAGGAAUCCAUGCATT against Pcdhga6 | inactive: -0.133
GGCUCAGCUCAUGAACGACTT against Acvr2b | inactive: -0.00307
GGAAAUAGCCAGAAUAAGGTT against Baiap2l1 | inactive: -0.976
GGAUCACAUGAAAGGAUUATT against Dclre1c | inactive: -0.242
GCUGCCUGAGUCCAGUCUUTT against Ear14 | inactive: -1.89
GCUACUCAGCUGCUUAAGCTT against Rpl7a | inactive: -0.154
GGGCCACCCAAAACAUCUUTT against Vmn1r19 | inactive: -0.456
GCUGAACCUGCAGCACAUCTT against Mettl7a2 | inactive: -0.0665
GCCAUACAUAAACUACAAUTT against Gulo | inactive: -0.175
CGCAAAGUGGACAAACGUATT against Kcne3 | inactive: 0.0218
CUGAAACAUCCGUACACUCTT against Svs3a | inactive: -1.06

Sequence | z-score
GGAAACUAGAUAGGACAAATT against Podn | inactive: 0.483
GGCAUAAUUCGAGAUAUCATT against Plcxd3 | inactive: -1.15
GGAAAUCAGAUUCCUUAAATT against Rmdn2 | inactive: 0.197
CCUUUAAAUGACCAUACUUTT against Eny2 | inactive: -0.21
GGUUGAAAAUGUUGUCAGGTT against Atpsckmt | inactive: -0.733
CCAAGAUUUAUCAACUCAGTT against Aqp1 | inactive: -0.796
GGGUUGGAAAUAAAUAACGTT against Commd9 | inactive: 0.942
GGUUUCUUGGACAGAAGUGTT against Nlrp4a | inactive: -0.0759
CCUCAGAGUGAUAACUAAATT against Ctdsp1 | inactive: 0.847
GGUUUACCAGGAAAAUUGATT against Txnrd3 | inactive: -1.09
CCUAAUAUAGUUGAGGAUGTT against Tgs1 | inactive: -0.319
GCGAAUCCAAGCUGGAUAGTT against Nfkbiz | inactive: -0.78
CCUCUCACGCUACAGCUGUTT against Nfatc1 | inactive: 1.28
GCAGUCGACAAAGUAUUUCTT against Msx3 | inactive: 0.0956
GGUUCUCUGUAGUUUAAAATT against Selp | inactive: 0.104
GGACAAGGCAACACAUACCTT against Csnk1a1 | active: 2.58
GGAAAAAGUGCAUUUAUGUTT against Prpf40a | inactive: -1.16
GAUGGUGUCUAUCGAGAGCTT against Oxct2a | inactive: -1.15
